Results are given in words; binding and its absence hold for the method and conditions named. In cells and extracts the contact can be indirect. Some binding calls cover weakened binding; strength is not graded here. For some assays here: Where a sequence is shown, tags or fusion partners need not be part of it.

Sequences of proteins named here, by UniProt entry; tags and fusion partners are left off.
UniProt Q9S775: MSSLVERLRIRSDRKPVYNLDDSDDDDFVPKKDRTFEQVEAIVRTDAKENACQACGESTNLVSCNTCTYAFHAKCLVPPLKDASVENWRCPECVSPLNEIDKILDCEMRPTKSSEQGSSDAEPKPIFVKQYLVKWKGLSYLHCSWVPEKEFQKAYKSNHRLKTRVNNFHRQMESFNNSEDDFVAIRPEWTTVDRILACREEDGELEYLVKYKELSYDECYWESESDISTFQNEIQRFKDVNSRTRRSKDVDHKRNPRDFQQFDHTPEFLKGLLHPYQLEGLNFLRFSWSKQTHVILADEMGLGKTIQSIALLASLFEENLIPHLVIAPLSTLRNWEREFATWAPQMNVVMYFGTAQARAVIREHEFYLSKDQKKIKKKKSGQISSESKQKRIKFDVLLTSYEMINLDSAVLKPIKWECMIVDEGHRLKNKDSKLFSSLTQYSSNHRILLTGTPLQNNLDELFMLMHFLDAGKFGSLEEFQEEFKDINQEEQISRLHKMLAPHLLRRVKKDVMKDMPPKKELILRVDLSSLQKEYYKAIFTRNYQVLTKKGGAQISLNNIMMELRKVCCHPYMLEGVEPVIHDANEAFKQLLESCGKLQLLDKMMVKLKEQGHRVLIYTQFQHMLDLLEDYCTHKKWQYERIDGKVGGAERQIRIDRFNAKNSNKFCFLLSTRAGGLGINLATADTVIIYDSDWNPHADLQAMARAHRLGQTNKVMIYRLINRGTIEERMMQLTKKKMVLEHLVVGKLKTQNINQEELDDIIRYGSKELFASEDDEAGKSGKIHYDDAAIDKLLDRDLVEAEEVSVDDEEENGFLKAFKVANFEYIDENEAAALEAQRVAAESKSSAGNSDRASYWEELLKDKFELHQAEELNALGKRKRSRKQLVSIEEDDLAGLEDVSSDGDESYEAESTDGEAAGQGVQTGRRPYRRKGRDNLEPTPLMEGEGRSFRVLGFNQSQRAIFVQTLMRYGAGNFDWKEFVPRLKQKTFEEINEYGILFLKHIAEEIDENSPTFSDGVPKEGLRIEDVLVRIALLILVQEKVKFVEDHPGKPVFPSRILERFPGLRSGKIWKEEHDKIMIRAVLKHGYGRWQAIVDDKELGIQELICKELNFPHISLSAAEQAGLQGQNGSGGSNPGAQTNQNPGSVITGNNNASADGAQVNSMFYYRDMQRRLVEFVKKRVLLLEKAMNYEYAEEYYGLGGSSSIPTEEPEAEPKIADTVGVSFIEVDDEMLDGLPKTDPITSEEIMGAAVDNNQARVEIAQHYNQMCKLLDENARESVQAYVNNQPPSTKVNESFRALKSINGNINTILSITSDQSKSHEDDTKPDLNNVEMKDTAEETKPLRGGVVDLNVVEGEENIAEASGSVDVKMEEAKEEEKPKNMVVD

Test [1] deals with Myc-PKL (PICKLE) (Arabidopsis thaliana) (UniProt Q9S775). The test is described as follows: co-IP; protein extracts of Arabidopsis protoplasts transfected with 35S::HA-RBR1 and 35S::myc-PKL; immunoprecipitated with anti-myc, blot with anti-HA; extraction buffer with 150 mM NaCl, 4 °C.
Test [2] deals with YFPC-fPKL (full-length PKL) (Arabidopsis thaliana) (UniProt Q9S775). As to the kind of experiment: split reporter; BiFC with YFPN and YFPC fusions coexpressed in suspension-derived Arabidopsis protoplasts; confocal microscopy about 16 h post-transformation.

B1: HA-RBR1 (RETINOBLASTOMA-RELATED 1) (protein, UniProt Q9LKZ3 1-1013)
chain: MEEVQPPVTPPIEPNGKRSEASLLDICEKVLSLDGSTCDEALKLFTETKRILSASMSNIGSGTREEVERFWFAFILYSVKRLSVRKEADGLSVSGDNEFNLCQILRALKLNIVDFFKELPQFVVKAGSVLGELYGADWENRLQAKEVQANFVHLSLLSKYYKRGFREFFLTYDANAEKNSANSSTYLLDSYRFGWLLFLALRNHAFSRFKDLVTCSNGVVSILAILIIHVPCRFRNFSIQDSSRFVKKGDKGVDLVASLCKIYDASEDELRIVIDKANNLVETILKKKPSPASECQTDKLDNIDPDGLTYFEDLLEETSISTSLITLEKDYYDGKGELDERVFINEEDSLLGSGSLSAGAVNITGVKRKIDALSSPARTFISPLSPHKSPAAKTNGISGATKLAATPVSTAMTTAKWLRTVISPLLPKPSPGLEHFLKSCDRDITNDVTRRAHIILEAIFPNSSLGAQCGGGSLQAVDLMDDIWAEQRRLEACKLYYRVLEAMCKAEAQILHANNLNSLLTNERFHRCMLACSAELVLATHKTITMLFPAVLERTGITAFDLSKVIESFIRHEDSLPRELRRHLNSLEERLLESMVWEKGSSMYNSLIVARPSLALEINQLGLLAEPMPSLDAIAALINFSDGANHASSVQKHETCPGQNGGIRSPKRLCTDYRSILVERNSFTSPVKDRLLALGNVKSKMLPPPLQSAFASPTRPNPGGGGETCAETGINIFFTKINKLAAVRINGMVERLQLSQQIRESVYCFFQHVLAQRTSLLFSRHIDQIILCCFYGVAKISQMSLTFREIIYNYRKQPQCKPLVFRSVYVDALQCRRQGRIGPDHVDIITFYNEIFIPAVKPLLVELGPVRNDRAVEANNKPEGQCPGSPKVSVFPSVPDMSPKKVSAVHNVYVSPLRGSKMDALISHSTKSYYACVGESTHAYQSPSKDLSAINNRLNNSSSNRKRTLNFDAEAGMVSDSMVANSLNLQNQNQNQNGSDASSSGGAAPLKTEPTDS
B1: the binding result in test [1] is “binds”.

B2: YFPN-RBR1 (protein, UniProt Q9LKZ3 1-1013)
chain: MEEVQPPVTPPIEPNGKRSEASLLDICEKVLSLDGSTCDEALKLFTETKRILSASMSNIGSGTREEVERFWFAFILYSVKRLSVRKEADGLSVSGDNEFNLCQILRALKLNIVDFFKELPQFVVKAGSVLGELYGADWENRLQAKEVQANFVHLSLLSKYYKRGFREFFLTYDANAEKNSANSSTYLLDSYRFGWLLFLALRNHAFSRFKDLVTCSNGVVSILAILIIHVPCRFRNFSIQDSSRFVKKGDKGVDLVASLCKIYDASEDELRIVIDKANNLVETILKKKPSPASECQTDKLDNIDPDGLTYFEDLLEETSISTSLITLEKDYYDGKGELDERVFINEEDSLLGSGSLSAGAVNITGVKRKIDALSSPARTFISPLSPHKSPAAKTNGISGATKLAATPVSTAMTTAKWLRTVISPLLPKPSPGLEHFLKSCDRDITNDVTRRAHIILEAIFPNSSLGAQCGGGSLQAVDLMDDIWAEQRRLEACKLYYRVLEAMCKAEAQILHANNLNSLLTNERFHRCMLACSAELVLATHKTITMLFPAVLERTGITAFDLSKVIESFIRHEDSLPRELRRHLNSLEERLLESMVWEKGSSMYNSLIVARPSLALEINQLGLLAEPMPSLDAIAALINFSDGANHASSVQKHETCPGQNGGIRSPKRLCTDYRSILVERNSFTSPVKDRLLALGNVKSKMLPPPLQSAFASPTRPNPGGGGETCAETGINIFFTKINKLAAVRINGMVERLQLSQQIRESVYCFFQHVLAQRTSLLFSRHIDQIILCCFYGVAKISQMSLTFREIIYNYRKQPQCKPLVFRSVYVDALQCRRQGRIGPDHVDIITFYNEIFIPAVKPLLVELGPVRNDRAVEANNKPEGQCPGSPKVSVFPSVPDMSPKKVSAVHNVYVSPLRGSKMDALISHSTKSYYACVGESTHAYQSPSKDLSAINNRLNNSSSNRKRTLNFDAEAGMVSDSMVANSLNLQNQNQNQNGSDASSSGGAAPLKTEPTDS
Take B2: the binding entry in test [2] is “binds”.
